For one substance, binding results are on record in article PMC10704431, “A complex with poly(A)-binding protein and EWS facilitates the transcriptional function of oncogenic ETS transcription factors in prostate cells” (The Journal of Biological Chemistry, 2023).

The chains behind the UniProt entries cited, without tags or fusion partners. Residues count along the entry.
UniProt Q01844, residues 356-656: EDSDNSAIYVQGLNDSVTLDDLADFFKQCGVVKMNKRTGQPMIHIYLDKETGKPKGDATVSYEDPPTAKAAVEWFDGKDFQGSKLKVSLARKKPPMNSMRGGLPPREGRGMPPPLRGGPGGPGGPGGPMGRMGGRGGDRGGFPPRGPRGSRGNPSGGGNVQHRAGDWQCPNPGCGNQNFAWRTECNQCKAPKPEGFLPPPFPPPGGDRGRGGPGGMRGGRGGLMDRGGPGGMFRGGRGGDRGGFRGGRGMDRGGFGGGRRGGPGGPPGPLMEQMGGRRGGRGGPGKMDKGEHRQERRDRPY
UniProt P11940: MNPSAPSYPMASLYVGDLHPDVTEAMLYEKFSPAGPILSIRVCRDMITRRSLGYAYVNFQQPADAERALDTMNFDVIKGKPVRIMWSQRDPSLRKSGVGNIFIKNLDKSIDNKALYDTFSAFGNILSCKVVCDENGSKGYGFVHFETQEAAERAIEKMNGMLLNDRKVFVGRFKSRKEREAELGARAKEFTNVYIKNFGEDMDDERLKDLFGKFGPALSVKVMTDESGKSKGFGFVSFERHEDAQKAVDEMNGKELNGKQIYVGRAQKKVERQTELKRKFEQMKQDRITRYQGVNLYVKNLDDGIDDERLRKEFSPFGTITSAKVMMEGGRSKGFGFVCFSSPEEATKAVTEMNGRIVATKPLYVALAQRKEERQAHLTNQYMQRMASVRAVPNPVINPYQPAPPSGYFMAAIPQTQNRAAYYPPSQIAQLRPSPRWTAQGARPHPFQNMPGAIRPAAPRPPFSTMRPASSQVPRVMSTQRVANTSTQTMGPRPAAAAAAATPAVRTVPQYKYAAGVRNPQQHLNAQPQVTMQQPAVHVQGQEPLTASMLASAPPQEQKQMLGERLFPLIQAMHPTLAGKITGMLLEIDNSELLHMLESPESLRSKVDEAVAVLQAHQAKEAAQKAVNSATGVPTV

The assay has as its target hemagglutinin-tagged ctEWS expressed in PC3 cells (UniProt Q01844). In words: affinity purification with mass spectrometry; ctEWS immunoprecipitated from PC3 cells expressing both ctEWS and ERG; mass spectrometry; probable contaminants filtered out.

No constants are given. Whether binding was seen depends on the method and setting. Binding seen in cells or lysates may run through a third protein. Here binding means that the protein was enriched with, or labelled near, the bait; the list need not be complete.

Regarding “cytoplasmic poly-adenylate-binding protein 1 (PABPC1), endogenous in PC3 cells (from UniProt P11940 1-636)”, the binding result is “binds”.
